Data from patent US9427437B2, “Hypercholesterolemia and tendinous injuries” (The Trustees of the University of Pennsylvania, priority 2008, dated 2016).
At least one compound was matched to its structure with a doubt left.

Assays:
rotator cuff tear = assay: Patient case: oral pravastatin for a rotator cuff tear in a hypercholesterolemic patient; type: in vivo, human; settings: orally 40 mg once daily
[1] = tested on: lateral epicondylitis (tennis elbow); assay: Patient case: oral simvastatin for lateral epicondylitis (tennis elbow) in a hypercholesterolemic patient; type: in vivo, human; settings: orally 10 mg once daily in the evening

`CC[C@H](C)C(=O)O[C@H]1C[C@H](O)C=C2C=C[C@H](C)[C@H](CC[C@@H](O)C[C@@H](O)CC(=O)O)[C@H]21` [pravastatin] was tested, and the “recovery from rotator cuff tear” value (rotator cuff tear; hypercholesterolemic person) was “markedly improved” and the cholesterol lowering (rotator cuff tear; person, total cholesterol 275 mg/DL at presentation) was “lowering their cholesterol to acceptable levels”.
In the case of `CCC(C)(C)C(=O)O[C@H]1C[C@@H](C)C=C2C=C[C@H](C)[C@H](CC[C@@H]3C[C@@H](O)CC(=O)O3)[C@H]21` [simvastatin], the “recovery from tennis elbow” value ([1]; hypercholesterolemic obese smoker) is reported as “markedly improved” and the cholesterol lowering ([1]; obese smoker, total cholesterol almost 260 mg/DL at presentation) is reported as “lowering their cholesterol to acceptable levels”.
